Some of the results follow. The data scatter; read single values as rough.
target: ATP1A1 C374 (UniProt P05023); experiment: log2 mean competition ratio of IA-DTB cysteine labelling (DMSO/compound) (log2 ratio); higher = stronger cysteine engagement by compound; conditions: 50 µM; treatment time: 4 h; cell line lysate: HEK293T
Description: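 IA-DTB competitive cysteine chemoproteomics in HEK293T RIPA lysate. Lysates were treated with compound 29 or 30 at 50 or 200 µM for 4 h, then IA-DTB (500 µM, 1 h), trypsin-digested, NeutrAvidin-enriched and analysed by diaPASEF. Competition ratio = intensity DMSO / intensity compound (n=4 treated, n=64 DMSO); binding: mean log2 CR ≥ 1 and p ≤ 0.05 plus QC filters. Target is the cysteine site.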

| Compound | log2 mean competition ratio |
| --- | --- |
| O=C(CCl)N[C@H]1CCCc2ccccc21 | -0.106 |
| O=C(CCl)N[C@@H]1CCCc2ccccc21 | -0.181 |

same assay, conditions: 200 µM; treatment time: 4 h; cell line lysate: HEK293T

| Compound | log2 mean competition ratio |
| --- | --- |
| O=C(CCl)N[C@H]1CCCc2ccccc21 | -0.121 |
| O=C(CCl)N[C@@H]1CCCc2ccccc21 | -0.231 |

From the supplement of paper PMC11732987, “Enantioselective OTUD7B fragment discovery through chemoproteomics screening and high-throughput optimisation” (Communications Chemistry, 2025)
